Data as given in PubChem BioAssay AID1508588 (Peter MacCallum Cancer Centre, 2020)
Aim: 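Knock-downs boosting vemurafenib effects on melanoma cell growth or lactate release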 (primary screen). System: human WM266.4 melanoma cells (BRAF V600 mutant). Reagents: siRNA pool against human genes, 40 nM. Time to read-out: 96 h from transfection to read-out. Treatment: vemurafenib 300 nM (about IC25), added 48 h after transfection, for 48 h; comparison arm got DMSO vehicle only. Measurement: 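Cell gain (DAPI nuclei at end minus before drug, mean of two replicates) and medium lactate by absorbance per cell, both as ratio to non-targeting siRNA, also grouped into fold-change classes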. Direction: cell gain with vemurafenib: higher = more cell gain than with non-targeting siRNA; lactate per cell with vemurafenib: higher = more lactate made per cell. Rule for the call: 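Enhancement is called by pairing each knock-down's vehicle-arm and drug-arm fold-change classes for viability or glycolysis; which class combinations qualify is not given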. Calls: active = enhances vemurafenib effect; inactive = no enhancement seen.
Here is a random part of about 18,000 reagents. Over the whole deposit, 790 (4.4%) got an active call. 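Calls rest on a combination of fold-change classes in drug and vehicle arms, not all shown here.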

gene | cell gain with vemurafenib | lactate per cell with vemurafenib | call
AKAP8L | 0.16 | 1.08 | inactive
DHX37 | 0.75 | 0.74 | inactive
B3GAT3 | 0.66 | 0.6 | inactive
TLR6 | 0.21 | 1.32 | inactive
OR2T2 | 0.18 | 1.54 | inactive
TECRL | 0.46 | 1.04 | inactive
SLC2A13 | 0.34 | 0.86 | inactive
HPGDS | 0.33 | 1.48 | inactive
PRDM12 | 1.34 | 0.74 | inactive
CCDC83 | 0.68 | 1.5 | inactive
CA5B | 0.7 | 0.26 | inactive
XKRX | 0.9 | 0.5 | inactive
LHFPL4 | 0.89 | 0.86 | inactive
MRPL20 | 0.76 | 2.08 | inactive
ALKBH2 | 0.37 | 1.63 | inactive
PIK3R1 | 1.29 | 1.12 | inactive
KRTAP21-1 | 0.43 | 0.57 | inactive
CTNND1 | 0.76 | 1.04 | inactive
PRPF19 | 0.98 | 0.82 | inactive
NUB1 | 0.62 | 0.8 | inactive
ATXN10 | 0.43 | 1.58 | inactive
LRIT1 | 0.18 | 0.83 | inactive
TSPYL6 | 0.88 | 1 | inactive
MSRA | 0.45 | 0.94 | inactive
MAGEL2 | 0.76 | 1.39 | inactive
SP7 | 0.07 | 1.04 | inactive
MIXL1 | 0.69 | 1.04 | inactive
RLN3 | 0.82 | 0.8 | inactive
HAVCR2 | 0.42 | 1.04 | inactive
TAF1 | 0.39 | 0.37 | inactive
RCVRN | 0.68 | 1.08 | inactive
PPP3CA | 0.86 | 1.11 | inactive
MDM2 | 1.05 | 1.05 | inactive
WNT9B | 0.64 | 1.3 | inactive
HERC2P3 | 0.2 | 1.61 | inactive
GDF2 | 0.05 | 2.78 | inactive
IL11 | 0.45 | 0.8 | inactive
USP44 | 0.54 | 1 | inactive
SPTB | 0.24 | 0.73 | inactive
CYP2C9 | 1.13 | 0.68 | inactive
GATAD2B | 0.11 | 0.78 | inactive
JPH3 | 0.43 | 2.22 | inactive
CCNYL1 | 0.72 | 1.14 | inactive
PRLR | 0.67 | 0.94 | inactive
CIMIP4 | 0.69 | 0.83 | inactive
PGLS | 0.23 | 0.99 | inactive
MED16 | 0.36 | 1.02 | inactive
SLCO1B3 | 0.85 | 0.91 | inactive
GPM6A | 0.73 | 0.68 | inactive
RERGL | 0.16 | 1.01 | inactive
NR2F2 | 0.62 | 0.92 | inactive
C17orf58 | 0.64 | 0.4 | inactive
CTTNBP2NL | 0.17 | 1.31 | active
FGF14 | 0.28 | 1.25 | inactive
IL1RAP | 0.87 | 0.94 | inactive
AGPAT4 | 0.44 | 1.06 | inactive
MRPL44 | 0.74 | 1.12 | inactive
PARP16 | 0 | 0.12 | active
PARVA | 0.41 | 0.49 | active
ID4 | 0.49 | 0.84 | inactive
OR2A14 | 0.1 | 0.68 | inactive
LY9 | 0.71 | 0.74 | inactive
OR5AS1 | 0.8 | 0.77 | inactive
AP4S1 | 0.13 | 1.41 | inactive
UNC13C | 0.93 | 0.2 | inactive
CARD18 | 0.95 | 0.9 | inactive
MADD | 0.75 | 1.08 | inactive
TMEM267 | 0.56 | 0.98 | inactive
DDX24 | 0.19 | 1.88 | inactive
CXCL16 | 0.32 | 2.81 | inactive
PRMT2IP | 0.23 | 2.04 | inactive
SLC31A2 | 0.45 | 1.35 | inactive
KRTAP22-1 | 0.73 | 0.66 | inactive
UBAP2 | 0.33 | 2.15 | inactive
CEP128 | 0.92 | 1.27 | inactive
STXBP1 | 0.33 | 2.16 | inactive
TERB2 | 0.48 | 0.8 | inactive
PABPC3 | 1.05 | 0.53 | inactive
FHL2 | 0.63 | 0.7 | inactive
KCNMB1 | 0.8 | 0.52 | inactive
ADAM15 | 0.8 | 1.12 | inactive
ZNF484 | -0.16 | 2.84 | inactive
LINC02908 | 0.57 | 0.78 | inactive
OR1J1 | 0.42 | 0.68 | inactive
C11orf65 | 0.2 | 1.12 | inactive
CDC25B | 0.41 | 1.5 | inactive
SH2B3 | 0.55 | 1.81 | inactive
TOP3B | 0.78 | 0.8 | inactive
RRP9 | 0.28 | 1.81 | inactive
ADAMTS10 | 0.54 | 1.19 | inactive
ZC3HAV1L | 1.04 | 0.82 | inactive
TRIM31 | 0.69 | 0.96 | inactive
EPHX1 | 0.57 | 0.88 | inactive
ETFBKMT | 0.06 | 1.2 | inactive
TBCD | 0.35 | 1.75 | inactive
SMAP2 | 1.04 | 0.44 | inactive
CHAMP1 | 0.5 | 1.17 | inactive
CAAP1 | 0.46 | 0.22 | inactive
ANKRD13C-DT | 0.08 | 2.97 | inactive
BEST1 | 0.17 | 0.36 | active
HLA-DQB1 | 0.45 | 0.64 | inactive
ETV3L | 0.22 | 0.66 | inactive
CDH17 | 0.81 | 1.12 | inactive
SNED1 | 1.18 | 0.59 | inactive
LINC00303 | 0.28 | 0.85 | inactive
PDF | 0.79 | 0.94 | inactive
MRPS26 | 1.07 | 0.67 | inactive

Part of the list above, set out differently:
{"gene": "KRTAP21-1", "cell gain with vemurafenib": 0.43, "lactate per cell with vemurafenib": 0.57, "call": "inactive"}
{"gene": "CTNND1", "cell gain with vemurafenib": 0.76, "lactate per cell with vemurafenib": 1.04, "call": "inactive"}
{"gene": "PRPF19", "cell gain with vemurafenib": 0.98, "lactate per cell with vemurafenib": 0.82, "call": "inactive"}
{"gene": "NUB1", "cell gain with vemurafenib": 0.62, "lactate per cell with vemurafenib": 0.8, "call": "inactive"}
{"gene": "ATXN10", "cell gain with vemurafenib": 0.43, "lactate per cell with vemurafenib": 1.58, "call": "inactive"}
